These are yes or no findings as the source states them, for the method shown. Binding seen in cells or lysates may run through a third protein. Binding can be weak; no strength is given.
Legend:
Experiment in all cases: co-IP; HA-Foxp3 or its deletion mutants and FLAG-HDAC1, 2 or 3 co-transfected in HEK293T; lysis in 0.4 M NaCl, 1% Triton X-100, diluted with hypotonic buffer; immunoprecipitation with anti-FLAG M2 agarose, 2 h at 4°C, washes with 0.5 M NaCl; blot with anti-HA
FLAG-tagged HDAC2 = FLAG-tagged HDAC2 (UniProt P70288)
FLAG-tagged HDAC3 = FLAG-tagged HDAC3 (UniProt O88895)
FLAG-tagged HDAC1 = FLAG-tagged HDAC1 (UniProt O09106)

Amino acid sequences for entries named in this document (tags omitted). A change or cut given only in a name is not applied to a line headed by its entry.
UniProt P70288: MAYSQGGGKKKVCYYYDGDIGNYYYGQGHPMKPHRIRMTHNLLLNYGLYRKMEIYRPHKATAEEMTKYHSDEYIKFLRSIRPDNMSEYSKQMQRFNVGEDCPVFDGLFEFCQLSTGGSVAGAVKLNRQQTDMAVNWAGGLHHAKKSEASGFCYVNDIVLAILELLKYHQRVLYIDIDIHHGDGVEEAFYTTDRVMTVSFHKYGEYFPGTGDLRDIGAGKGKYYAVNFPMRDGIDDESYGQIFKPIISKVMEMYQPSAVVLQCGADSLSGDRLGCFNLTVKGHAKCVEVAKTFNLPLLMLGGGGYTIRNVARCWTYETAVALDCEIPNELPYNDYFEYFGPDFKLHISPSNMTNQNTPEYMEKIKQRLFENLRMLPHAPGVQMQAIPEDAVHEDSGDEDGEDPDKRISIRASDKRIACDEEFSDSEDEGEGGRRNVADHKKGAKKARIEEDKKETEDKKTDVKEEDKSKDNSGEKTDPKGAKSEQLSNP
UniProt O88895: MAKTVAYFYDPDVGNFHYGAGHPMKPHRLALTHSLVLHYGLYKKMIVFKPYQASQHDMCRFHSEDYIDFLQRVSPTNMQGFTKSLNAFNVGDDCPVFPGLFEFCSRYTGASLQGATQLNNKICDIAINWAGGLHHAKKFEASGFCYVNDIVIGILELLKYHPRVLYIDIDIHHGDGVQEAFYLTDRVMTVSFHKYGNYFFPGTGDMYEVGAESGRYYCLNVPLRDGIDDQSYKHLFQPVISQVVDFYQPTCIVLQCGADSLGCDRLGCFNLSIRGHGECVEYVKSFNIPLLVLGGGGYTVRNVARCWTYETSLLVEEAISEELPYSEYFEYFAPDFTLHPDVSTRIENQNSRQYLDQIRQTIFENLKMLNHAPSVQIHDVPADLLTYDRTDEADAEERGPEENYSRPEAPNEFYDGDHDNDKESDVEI
UniProt O09106: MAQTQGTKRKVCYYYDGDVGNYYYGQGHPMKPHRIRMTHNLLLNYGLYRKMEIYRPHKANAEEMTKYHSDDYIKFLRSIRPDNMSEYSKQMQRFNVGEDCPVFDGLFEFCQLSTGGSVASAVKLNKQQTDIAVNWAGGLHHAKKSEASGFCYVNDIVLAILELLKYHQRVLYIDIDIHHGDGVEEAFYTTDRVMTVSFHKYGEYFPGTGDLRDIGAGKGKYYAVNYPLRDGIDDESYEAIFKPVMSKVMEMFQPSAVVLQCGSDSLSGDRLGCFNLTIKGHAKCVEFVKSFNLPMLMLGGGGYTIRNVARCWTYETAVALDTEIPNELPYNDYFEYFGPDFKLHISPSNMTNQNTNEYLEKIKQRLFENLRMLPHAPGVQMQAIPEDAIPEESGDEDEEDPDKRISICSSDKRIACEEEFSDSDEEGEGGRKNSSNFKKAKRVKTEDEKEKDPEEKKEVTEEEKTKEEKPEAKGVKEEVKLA
UniProt Q99JB6: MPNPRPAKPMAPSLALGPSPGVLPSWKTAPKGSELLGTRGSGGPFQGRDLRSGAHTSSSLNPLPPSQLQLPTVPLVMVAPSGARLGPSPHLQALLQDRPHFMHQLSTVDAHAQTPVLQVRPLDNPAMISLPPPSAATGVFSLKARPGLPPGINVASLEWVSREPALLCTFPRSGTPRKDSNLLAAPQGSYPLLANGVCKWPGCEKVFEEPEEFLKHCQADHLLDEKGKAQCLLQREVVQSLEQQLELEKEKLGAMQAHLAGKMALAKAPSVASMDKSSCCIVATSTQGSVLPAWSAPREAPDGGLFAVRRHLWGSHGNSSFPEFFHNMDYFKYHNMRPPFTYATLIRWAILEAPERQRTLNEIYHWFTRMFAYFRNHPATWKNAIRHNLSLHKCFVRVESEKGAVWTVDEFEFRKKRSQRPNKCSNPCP

Measured: binding

HA-tagged Foxp3 with exon 3 alone deleted (from UniProt Q99JB6)
binds: all assays above
